Counter-ions that a name gives are not always drawn. This is one part of the list. Single values are uncertain here, since repeats match poorly.

The subject of the assay is Brugia pahangi adult female. Nature of the assay: motility inhibition on day 3 relative to DMSO vehicle; higher = more active. The settings on record: 10 µM; 3 days.
As to `CCOP(=S)(OCC)Oc1cc(C)nc(C(C)C)n1` [diazinon], the “motility inhibition on day 3” value is 8.99%. Turning to `CNC(C)(C)Cc1ccccc1` [mephentermine sulfate], the “motility inhibition on day 3” value stood at 2.87%. As to `C[C@]12CCC(=O)C(O)=C1CC[C@@H]1[C@@H]2CC[C@]2(C)C(=O)CC[C@@H]12` [formestane], the “motility inhibition on day 3” value amounted to 8.6%. To `CC(C)C[C@H]1C(=O)N2CCC[C@H]2[C@]2(O)O[C@](NC(=O)[C@@H]3C=C4c5cccc6[nH]c(Br)c(c56)C[C@H]4N(C)C3)(C(C)C)C(=O)N12` [bromocriptine mesylate] belongs 45.8%. To `C[C@]12CCC(=O)C=C1CC[C@@H]1[C@@H]2CC[C@@]2(C)[C@H]1CC[C@]2(C)O` [Methyltestosterone] belongs less than 0%; to `CN1[C@@H]2CC[C@H]1C[C@@H](OC(=O)C(CO)c1ccccc1)C2` (some centres undefined) [Atropine sulfate], 11%; to `CNCC(O)c1ccc(O)cc1` (centres undefined) [oxedrine], less than 0%. For `CC(=O)NC1CCSC1=O` (centres undefined) [citiolone], the “motility inhibition on day 3” value is 0.0165%. Turning to `CCNC(C)Cc1cccc(C(F)(F)F)c1` (racemic) [(±)-Fenfluramine hydrochloride], the “motility inhibition on day 3” value amounted to 7.09%. The result for `CCN(CC)CCN1C(=O)CN=C(c2ccccc2F)c2cc(Cl)ccc21` [Flurazepam dihydrochloride] reads 10.9%.

As to `CNC(=O)Oc1ccccc1OC(C)C` [propoxur], the “motility inhibition on day 3” value was 0.78%. On to `C[C@]12COC(=O)C[C@@H]1CC[C@@H]1[C@@H]2CC[C@@]2(C)[C@H]1CC[C@]2(C)O` [Oxandrolone], for which the “motility inhibition on day 3” value came to 6.19%. Regarding `c1ccc2c(c1)sc1ccccc12` [dibenzothiophene], the “motility inhibition on day 3” value came out at 10.8%. As for `O=P1(N(CCCl)CCCl)NCCCO1` (centres undefined) [cyclophosphamide hydrate], the “motility inhibition on day 3” value turned out to be 16.9%.

`CCOP(=S)(OCC)Oc1nc(Cl)c(Cl)cc1Cl` [chlorpyrifos]: the “motility inhibition on day 3” value turned out to be 1.58%. The result for `C=CCC1(C(C)CCC)C(=O)NC(=S)NC1=O` (centres undefined) [thiamylal sodium] reads 21.2%; that for `CCCCCCCCCCCCCCCC[n+]1ccccc1` [cetylpyridinium chloride], 93.7%; that for `CCOc1cc(C=O)ccc1O` [ethyl vanillin], 9.56%.

As to `C=C1C[C@@H]2[C@H](CC[C@]3(C)C(=O)CC[C@@H]23)[C@@]2(C)C=CC(=O)C=C12`, the “motility inhibition on day 3” value was less than 0%. The result for `C=C1C[C@@H]2[C@H](CC[C@]3(C)C(=O)CC[C@@H]23)[C@@]2(C)C=CC(=O)C=C12` [exemestane] reads less than 0%; that for `CCOP(=S)(OCC)Oc1ccc2c(C)c(Cl)c(=O)oc2c1` [coumophos], 16.6%; that for `CN1C(=O)CN=C(c2ccccc2F)c2cc([N+](=O)[O-])ccc21` [Flunitrazepam], 16.6%. Consider `CCC1(CC)C(=O)NC(=O)N(C)C1=O` [Metharbital], for which the “motility inhibition on day 3” value turned out to be 38.9%.

Turning to `CNC(C)Cc1ccccc1` (single isomer, unassigned; (+)) [(+)-Methamphetamine hydrochloride], the “motility inhibition on day 3” value was determined as 22.6%.

Take `N[C@@H]1C[C@H]1c1ccccc1.N[C@H]1C[C@@H]1c1ccccc1` [tranylcypromine]: the “motility inhibition on day 3” value worked out at 87.1%.

Regarding `N[C@@H]1C[C@H]1c1ccccc1.N[C@H]1C[C@@H]1c1ccccc1` [Tranylcypromine HCl  (Sigma)], the “motility inhibition on day 3” value was 17.8%. The result for `N[C@@H]1C[C@H]1c1ccccc1.N[C@H]1C[C@@H]1c1ccccc1` [tranylcypromine sulfate] reads 11.3%. With `C#CC(C)(O)CC` (centres undefined) [meparfylon], the “motility inhibition on day 3” value was less than 0%. For the compound `C[N+]1(C)CCCC(OC(=O)C(O)(c2ccccc2)c2ccccc2)C1` (centres undefined) [mepenzolate bromide], the “motility inhibition on day 3” value was 30.4%.

For the compound `COC(C)(C)CCC[C@H](C)C/C=C/C(C)=C/C(=O)OC(C)C` [methoprene (s)], the “motility inhibition on day 3” value was less than 0%. To `CN1C(=O)CC(=O)N(c2ccccc2)c2cc(Cl)ccc21` [Clobazam] belongs 32.4%; to `CCCC(C)(COC(N)=O)COC(=O)NC(C)C` (centres undefined) [Carisoprodol], 48.2%; to `Cl[C@H]1[C@H](Cl)[C@@H](Cl)[C@@H](Cl)[C@H](Cl)[C@H]1Cl` [lindane], 29.4%. To `Oc1ccc(Cl)cc1Cc1cc(Cl)ccc1O` [dichlorophene] belongs 99.9%; to `CC(O)CN1CCN(CC(=O)[O-])CCN(CC(=O)[O-])CCN(CC(=O)[O-])CC1.[Gd+3]` (centres undefined) [gadoteridol], 12.4%. For `COc1ccc(OC)c(C(O)C(C)N)c1` (centres undefined) [Methoxamine hydrochloride], the “motility inhibition on day 3” value amounted to 33.2%. To `CCC(=O)O[C@H]1CC[C@H]2[C@@H]3CCC4=CC(=O)CC[C@]4(C)[C@H]3CC[C@]12C` [testosterone propionate] belongs 3.91%; to `C[C@@H]1CN([C@H]2CC[C@](C#N)(c3ccc(F)cc3)CC2)CC[C@]1(C(=O)O)c1ccccc1` [Levocabastine??HCl], 14.4%; to `CCC1(CC)C(=O)NC(=O)NC1=O` [barbital], 8.41%.

For `O=C1CCO1` [beta-propiolactone], the “motility inhibition on day 3” value was 44.4%. For the compound `O=c1[nH]oc2c1CCNC2` [THIP hydrochloride], the “motility inhibition on day 3” value amounted to 5.16%.

Turning to `CCC1(C2=NCCN2)Cc2ccccc2O1` (centres undefined) [efaroxan], the “motility inhibition on day 3” value was 22.4%. Take `CC[C@@H](CO)NC(=O)[C@@H]1C=C2c3cccc4[nH]cc(c34)C[C@H]2N(C)C1` [methylergonovine maleate]: the “motility inhibition on day 3” value amounted to 30.8%.

For `CCCCOC(=O)c1ccccc1C(=O)OCCCC` [dibutyl phthalate], the “motility inhibition on day 3” value is less than 0%. Consider `Cc1cc(C(C#N)c2ccc(Cl)cc2)c(Cl)cc1NC(=O)c1cc(I)cc(I)c1O` (centres undefined) [closantel], for which the “motility inhibition on day 3” value is 0.459%. To `O=C(O)c1nn(Cc2ccc(Cl)cc2Cl)c2ccccc12` [lonidamine] belongs 5.28%; to `C[C@@H]1C[C@@H]([C@H](O)CC2CC(=O)NC(=O)C2)C(=O)[C@@H](C)C1` [cycloheximide], 8.39%; to `CC(O)(CS(=O)(=O)c1ccc(F)cc1)C(=O)Nc1ccc(C#N)c(C(F)(F)F)c1` (centres undefined) [bicalutamide], 24.7%. Turning to `CCOC(=O)c1cncn1[C@H](C)c1ccccc1` [etomidate], the “motility inhibition on day 3” value was 14.8%. To `O=c1cccc2n1C[C@@H]1CNC[C@H]2C1` [cytisine] belongs 14.3%; to `NCC1(CC(=O)O)CCCCC1` [gabapentin], 2.77%. As to `NCC1(CC(=O)O)CCCCC1` [Gabapentin], the “motility inhibition on day 3” value worked out at 13.8%. On to `O=C(CCCN1CCC2(CC1)C(=O)NCN2c1ccccc1)c1ccc(F)cc1` [Spiperone hydrochloride], for which the “motility inhibition on day 3” value turned out to be 10.3%. Consider `O=[N+]([O-])O[C@H]1CO[C@H]2[C@@H]1OC[C@H]2O[N+](=O)[O-]` [isosorbide dinitrate], for which the “motility inhibition on day 3” value turned out to be 69%.

The values above are taken from the supplement of paper PMC7830784.
